Reference: patent US20080014186A1, “Hla-A24 or Hla-A2 Binding Peptides of Parathyroid Hormone-Related Protein” (GREEN PEPTIDE CO., LTD., priority 2004, published 2008)
Not every detail of the peptide structures is certain; ends, links or a residue may be inferred. Ends that are not written are not given here.

Assays:
[1] = tested on: PBMCs of HLA-A24^+ healthy donors and prostate cancer patients; assay: Assay for peptide-specific CTLs in PBMCs (IFN-γ ELISA, peptide-pulsed C1R-A24 cells); format: cell-based, human; details: for IFN-γ production: C1R-A24 cells, HIV peptide background subtracted
Procedure: To investigate the immunogenicity of these four PTHrP peptides, the PBMCs of 10 HLA-A24^+ healthy donors and 10 HLA-A24^+ prostate cancer patients were stimulated with each of the four PTHrP peptides and were examined for their IFN-γ production in response to C1R-A24 cells, which were pre-pulsed with either a corresponding PTHrP peptide or the HIV peptide. Flu- and EBV-derived peptides were used as controls.
The assay for detection of peptide-specific CTLs in PBMCs was performed according to a previously reported method. In brief, PBMCs (1 X 10^5 cells/well) were incubated with […] of each peptide in a U-bottom-type 96-well microculture plate (Nunc, Roskilde, Denmark) at a volume of 200 μl of culture medium. The culture medium consisted of 45% RPMI-1640, 45% AIM-V medium (Gibco BRL), 10% FCS, 100 U/ml of IL-2, and 0.1 mM MEM nonessential amino acid solution (Gibco, BRL). Half of the culture medium was removed and replaced with new medium containing a corresponding peptide (20 μg/ml) every 3 days. On the 15th day of culture, the cultured cells were separated into 4 wells, and two wells were used for PTHrP peptide-pulsed C1R-A24 cells, and the other two wells were used for the HIV peptide-pulsed C1R-A24 cells. After an 18-hr incubation period, the supernatants were collected, and the level of IFN-γ was determined by ELISA (limit of sensitivity: 10 pg/ml).
The assay was carried out in quadruplicate, and the mean of two wells which show the highest significance compared to the control is shown in Table 1.
It was then determined whether PBMCs stimulated by either the PTHrP 36-44 or the PTHrP 102-111 peptide could induce prostate cancer-reactive CTLs from HLA-A24^+ healthy donors and prostate cancer patients. PBMCs from HLA-A24^+ healthy donors and prostate cancer patients were repeatedly stimulated with these PTHrP peptides. On day 15, half of the cultured cells were harvested, pooled from 4 wells, and cultured with C1R-A24 cells, which were pre-pulsed with the HIV peptide (open symbol) and the indicated PTHrP peptide (closed symbol) for 18-hr. The levels of IFN-γ in the supernatants were then determined by ELISA.

[2] = tested on: IgG in plasma of HLA-A24^+ healthy donors and prostate cancer patients; assay: Peptide-specific IgG in plasma by ELISA (HLA-A24-binding PTHrP peptides); parameters: species or system human; details: for IgG reactive to the peptide in plasma: 1:100-diluted plasma
From the text: The inventors previously reported that IgGs reactive to CTL epitope peptides were detected in healthy donors and patients with various types of cancers. IgGs reactive to prostate-related antigens were also detected in healthy donors and prostate cancer patients. It was examined, therefore, whether IgG reactive to the four PTHrP-derived peptides, PTHrP 36-44, PTHrP 102-111, PTHrP 25-34, and PTHrP 110-119, could be detected in the plasma of cancer patients and healthy donors.
Peptide-specific IgG levels in the plasma were measured by ELISA, as previously reported. In brief, peptide (20 μg/well)-immobilized plates were blocked with Block Ace (Yukijirushi, Tokyo, Japan) and washed with 0.05% Tween20-PBS, after which 100 μl/well of plasma sample diluted with 0.05% Tween20-Block Ace was added to the plate. After 2 hours incubation at 37° C., the plates were washed and further incubated for 2 hours with a 1:1000-diluted rabbit anti-human IgG (γ-chain-specific) (DAKO, Glostrup, Denmark). The plates were washed, and then 100 μl of 1:100-diluted goat anti-rabbit IgG-conjugated horseradish peroxidase (EnVision, DAKO) was added to each well, and the plates were then incubated at room temperature for 40 min. After the plates were washed once, 100 μl/well of tetramethyl benzidine substrate solution (KPL, Guildford, UK) was added, and the reaction was stopped by the addition of 1 M phosphoric acid. The values are shown as optical density (OD) units/ml, and responses to the HIV peptide were subtracted. IgG reactive to a corresponding PTHrP peptide was judged to be positive when the difference of the OD in 1:100-diluted plasma exceeded 0.05. The results that IgG reactive to either the PTHrP102-111 or the […] peptide was detected in 8 of 10 healthy donors and in 7 of 10 prostate cancers are shown in Table 2 hereinafter.
To confirm the specificity of IgG to the indicated PTHrP peptide, 100 μl of sample plasma from either HD #1 and Pt #6 was cultured in a plate pre-coated with either a corresponding PTHrP peptide or an irrelevant PTHrP peptide. Thereafter, the levels of IgG reactive to the PTHrP 102-111 peptide or the PTHrP 110-119 peptide in the resulting supernatants were determined by ELISA.

[3] = HLA-A24^+ prostate cancer patient #1
[4] = HLA-A24^+ prostate cancer patient #2
[5] = HLA-A24^+ prostate cancer patient #3
[6] = HLA-A24^+ prostate cancer patient #4
[7] = HLA-A24^+ prostate cancer patient #5
[8] = HLA-A24^+ prostate cancer patient #6
[9] = HLA-A24^+ prostate cancer patient #7
[10] = HLA-A24^+ prostate cancer patient #8
[11] = HLA-A24^+ prostate cancer patient #9
[12] = HLA-A24^+ prostate cancer patient #10
[13] = HLA-A24^+ prostate cancer patients

RAVSEHQLL [PTHrP 36-44]
IFN-γ production ([1]; HLA-A24^+ healthy donor #1): 154 pg/mL | IFN-γ production ([1]; HLA-A24^+ healthy donor #2): 156 pg/mL | IFN-γ production ([1]; HLA-A24^+ healthy donor #3): 497 pg/mL | IFN-γ production ([1]; HLA-A24^+ healthy donor #4): 0 pg/mL | IFN-γ production ([1]; HLA-A24^+ healthy donor #5): 184 pg/mL | IFN-γ production ([1]; HLA-A24^+ healthy donor #6): 1354 pg/mL | IFN-γ production ([1]; HLA-A24^+ healthy donor #7): 166 pg/mL | IFN-γ production ([1]; HLA-A24^+ healthy donor #8): 0 pg/mL | IFN-γ production ([1]; HLA-A24^+ healthy donor #9): 0 pg/mL | IFN-γ production ([1]; HLA-A24^+ healthy donor #10): 0 pg/mL | induced peptide-specific CTLs, number of donors ([1]; HLA-A24^+ healthy donors): 6 of 10 | Total (donors with significant peptide-specific IFN-γ production / donors tested) ([1]; HLA-A24^+ healthy donors, p < 0.05): 6/10 | IFN-γ production [1, 3]: 180 pg/mL | IFN-γ production [1, 4]: 122 pg/mL | IFN-γ production [1, 5]: 699 pg/mL | IFN-γ production [1, 6]: 31 pg/mL | IFN-γ production [1, 7]: 799 pg/mL | IFN-γ production [1, 8]: 500 pg/mL | IFN-γ production [1, 9]: 317 pg/mL | IFN-γ production [1, 10]: 4 pg/mL | IFN-γ production [1, 11]: 17 pg/mL | IFN-γ production [1, 12]: 180 pg/mL | induced peptide-specific CTLs (peptide-specific IFN-γ production), number of patients [1, 13]: 7 of 10 | Total (patients with significant peptide-specific IFN-γ production / patients tested) ([1]; HLA-A24^+ prostate cancer patients, p < 0.05): 7/10 | IgG reactive to the peptide in plasma ([2]; HLA-A24^+ healthy donor #1): − (IgG reactive to a corresponding peptide was judged to be positive when the difference of the OD in 1:100-diluted plasma exceeded 0.05.) | IgG reactive to the peptide in plasma ([2]; HLA-A24^+ healthy donor #2): − (IgG reactive to a corresponding peptide was judged to be positive when the difference of the OD in 1:100-diluted plasma exceeded 0.05.) | IgG reactive to the peptide in plasma ([2]; HLA-A24^+ healthy donor #3): − (IgG reactive to a corresponding peptide was judged to be positive when the difference of the OD in 1:100-diluted plasma exceeded 0.05.) | IgG reactive to the peptide in plasma ([2]; HLA-A24^+ healthy donor #4): − (IgG reactive to a corresponding peptide was judged to be positive when the difference of the OD in 1:100-diluted plasma exceeded 0.05.) | IgG reactive to the peptide in plasma ([2]; HLA-A24^+ healthy donor #5): − (IgG reactive to a corresponding peptide was judged to be positive when the difference of the OD in 1:100-diluted plasma exceeded 0.05.) | IgG reactive to the peptide in plasma ([2]; HLA-A24^+ healthy donor #6): − (IgG reactive to a corresponding peptide was judged to be positive when the difference of the OD in 1:100-diluted plasma exceeded 0.05.) | IgG reactive to the peptide in plasma ([2]; HLA-A24^+ healthy donor #7): + (IgG reactive to a corresponding peptide was judged to be positive when the difference of the OD in 1:100-diluted plasma exceeded 0.05.) | IgG reactive to the peptide in plasma ([2]; HLA-A24^+ healthy donor #8): + (IgG reactive to a corresponding peptide was judged to be positive when the difference of the OD in 1:100-diluted plasma exceeded 0.05.) | IgG reactive to the peptide in plasma ([2]; HLA-A24^+ healthy donor #9): + (IgG reactive to a corresponding peptide was judged to be positive when the difference of the OD in 1:100-diluted plasma exceeded 0.05.) | IgG reactive to the peptide in plasma ([2]; HLA-A24^+ healthy donor #10): − (IgG reactive to a corresponding peptide was judged to be positive when the difference of the OD in 1:100-diluted plasma exceeded 0.05.) | IgG reactive to the peptide detected, number of donors ([2]; HLA-A24^+ healthy donors): 3 of 10 | Total (IgG-positive donors / donors tested) ([2]; HLA-A24^+ healthy donors): 3/10 | IgG reactive to the peptide in plasma [2, 3]: − (IgG reactive to a corresponding peptide was judged to be positive when the difference of the OD in 1:100-diluted plasma exceeded 0.05.) | IgG reactive to the peptide in plasma [2, 4]: − (IgG reactive to a corresponding peptide was judged to be positive when the difference of the OD in 1:100-diluted plasma exceeded 0.05.) | IgG reactive to the peptide in plasma [2, 5]: − (IgG reactive to a corresponding peptide was judged to be positive when the difference of the OD in 1:100-diluted plasma exceeded 0.05.) | IgG reactive to the peptide in plasma [2, 6]: − (IgG reactive to a corresponding peptide was judged to be positive when the difference of the OD in 1:100-diluted plasma exceeded 0.05.) | IgG reactive to the peptide in plasma [2, 7]: + (IgG reactive to a corresponding peptide was judged to be positive when the difference of the OD in 1:100-diluted plasma exceeded 0.05.) | IgG reactive to the peptide in plasma [2, 8]: − (IgG reactive to a corresponding peptide was judged to be positive when the difference of the OD in 1:100-diluted plasma exceeded 0.05.) | IgG reactive to the peptide in plasma [2, 9]: − (IgG reactive to a corresponding peptide was judged to be positive when the difference of the OD in 1:100-diluted plasma exceeded 0.05.) | IgG reactive to the peptide in plasma [2, 10]: − (IgG reactive to a corresponding peptide was judged to be positive when the difference of the OD in 1:100-diluted plasma exceeded 0.05.) | IgG reactive to the peptide in plasma [2, 11]: − (IgG reactive to a corresponding peptide was judged to be positive when the difference of the OD in 1:100-diluted plasma exceeded 0.05.) | IgG reactive to the peptide in plasma [2, 12]: − (IgG reactive to a corresponding peptide was judged to be positive when the difference of the OD in 1:100-diluted plasma exceeded 0.05.) | IgG reactive to the peptide detected, number of patients [2, 13]: 1 of 10 | Total (IgG-positive patients / patients tested) [2, 13]: 1/10
